From publication PMC12677674
Results are given in words; binding and its absence hold for the method and conditions named. Binding seen in cells or lysates may run through a third protein. Some entries that bind do so weakly or less than the wild type. Values belong to the molecule of their own block, whether it stands above or below them.

The chains behind the UniProt entries cited, without tags or fusion partners.
UniProt Q62120: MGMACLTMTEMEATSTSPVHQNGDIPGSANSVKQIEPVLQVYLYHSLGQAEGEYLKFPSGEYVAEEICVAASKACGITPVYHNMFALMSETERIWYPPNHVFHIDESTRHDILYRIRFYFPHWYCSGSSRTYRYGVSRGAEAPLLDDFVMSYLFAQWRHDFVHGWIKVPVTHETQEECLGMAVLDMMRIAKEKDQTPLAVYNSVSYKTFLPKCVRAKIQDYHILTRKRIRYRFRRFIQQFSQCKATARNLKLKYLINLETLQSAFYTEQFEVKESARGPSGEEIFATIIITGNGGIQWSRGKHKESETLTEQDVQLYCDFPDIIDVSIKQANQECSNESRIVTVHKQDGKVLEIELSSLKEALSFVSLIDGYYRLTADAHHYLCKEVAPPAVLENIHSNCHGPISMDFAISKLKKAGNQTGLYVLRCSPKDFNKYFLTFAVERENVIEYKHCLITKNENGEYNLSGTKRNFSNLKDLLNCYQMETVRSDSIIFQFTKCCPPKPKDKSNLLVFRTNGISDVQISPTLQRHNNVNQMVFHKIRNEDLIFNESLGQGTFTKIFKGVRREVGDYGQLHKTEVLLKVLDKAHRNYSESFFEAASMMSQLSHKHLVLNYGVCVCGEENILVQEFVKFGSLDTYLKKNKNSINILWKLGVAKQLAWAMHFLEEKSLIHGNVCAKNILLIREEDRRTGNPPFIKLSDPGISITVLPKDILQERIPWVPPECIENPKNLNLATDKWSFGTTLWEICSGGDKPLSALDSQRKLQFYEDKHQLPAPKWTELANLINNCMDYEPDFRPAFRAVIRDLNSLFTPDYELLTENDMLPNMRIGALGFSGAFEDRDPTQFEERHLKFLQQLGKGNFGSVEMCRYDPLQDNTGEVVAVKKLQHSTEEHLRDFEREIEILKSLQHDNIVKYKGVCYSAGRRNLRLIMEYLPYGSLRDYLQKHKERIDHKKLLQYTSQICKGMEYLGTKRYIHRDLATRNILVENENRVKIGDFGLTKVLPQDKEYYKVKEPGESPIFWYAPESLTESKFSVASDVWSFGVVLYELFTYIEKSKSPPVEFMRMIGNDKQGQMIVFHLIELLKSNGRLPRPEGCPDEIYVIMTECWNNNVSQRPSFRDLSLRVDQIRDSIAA
UniProt Q9R117: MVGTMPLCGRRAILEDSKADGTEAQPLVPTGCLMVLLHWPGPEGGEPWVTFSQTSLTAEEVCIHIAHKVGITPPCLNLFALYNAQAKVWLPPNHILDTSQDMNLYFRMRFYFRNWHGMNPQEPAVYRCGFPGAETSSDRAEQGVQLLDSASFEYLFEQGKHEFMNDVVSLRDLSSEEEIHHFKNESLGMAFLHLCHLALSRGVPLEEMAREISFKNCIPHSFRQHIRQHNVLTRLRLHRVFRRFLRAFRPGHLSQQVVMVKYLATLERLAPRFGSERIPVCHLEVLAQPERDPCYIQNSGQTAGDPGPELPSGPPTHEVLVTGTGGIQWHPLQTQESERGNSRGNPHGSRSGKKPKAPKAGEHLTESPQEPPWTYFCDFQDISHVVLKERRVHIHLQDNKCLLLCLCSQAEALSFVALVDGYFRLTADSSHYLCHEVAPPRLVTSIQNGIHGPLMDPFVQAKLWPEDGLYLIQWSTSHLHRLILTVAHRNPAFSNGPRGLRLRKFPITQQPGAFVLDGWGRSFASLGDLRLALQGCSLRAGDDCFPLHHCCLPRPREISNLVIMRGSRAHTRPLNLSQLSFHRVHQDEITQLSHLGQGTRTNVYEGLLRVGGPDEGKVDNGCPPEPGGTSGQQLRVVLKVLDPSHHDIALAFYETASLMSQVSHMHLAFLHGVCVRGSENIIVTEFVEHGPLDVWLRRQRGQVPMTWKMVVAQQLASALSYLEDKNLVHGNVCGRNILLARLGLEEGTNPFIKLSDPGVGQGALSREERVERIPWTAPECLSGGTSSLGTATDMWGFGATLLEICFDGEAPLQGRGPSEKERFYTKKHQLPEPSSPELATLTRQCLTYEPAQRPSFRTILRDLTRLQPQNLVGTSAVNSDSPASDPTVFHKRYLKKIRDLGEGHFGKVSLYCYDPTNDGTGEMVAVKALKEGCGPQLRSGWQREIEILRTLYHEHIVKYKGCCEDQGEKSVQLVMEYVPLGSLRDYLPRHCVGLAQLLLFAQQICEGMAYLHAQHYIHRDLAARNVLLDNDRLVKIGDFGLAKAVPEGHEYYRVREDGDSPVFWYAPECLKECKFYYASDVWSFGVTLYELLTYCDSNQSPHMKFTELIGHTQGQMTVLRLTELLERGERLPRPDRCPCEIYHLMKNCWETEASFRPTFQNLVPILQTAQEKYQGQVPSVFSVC
UniProt P52332: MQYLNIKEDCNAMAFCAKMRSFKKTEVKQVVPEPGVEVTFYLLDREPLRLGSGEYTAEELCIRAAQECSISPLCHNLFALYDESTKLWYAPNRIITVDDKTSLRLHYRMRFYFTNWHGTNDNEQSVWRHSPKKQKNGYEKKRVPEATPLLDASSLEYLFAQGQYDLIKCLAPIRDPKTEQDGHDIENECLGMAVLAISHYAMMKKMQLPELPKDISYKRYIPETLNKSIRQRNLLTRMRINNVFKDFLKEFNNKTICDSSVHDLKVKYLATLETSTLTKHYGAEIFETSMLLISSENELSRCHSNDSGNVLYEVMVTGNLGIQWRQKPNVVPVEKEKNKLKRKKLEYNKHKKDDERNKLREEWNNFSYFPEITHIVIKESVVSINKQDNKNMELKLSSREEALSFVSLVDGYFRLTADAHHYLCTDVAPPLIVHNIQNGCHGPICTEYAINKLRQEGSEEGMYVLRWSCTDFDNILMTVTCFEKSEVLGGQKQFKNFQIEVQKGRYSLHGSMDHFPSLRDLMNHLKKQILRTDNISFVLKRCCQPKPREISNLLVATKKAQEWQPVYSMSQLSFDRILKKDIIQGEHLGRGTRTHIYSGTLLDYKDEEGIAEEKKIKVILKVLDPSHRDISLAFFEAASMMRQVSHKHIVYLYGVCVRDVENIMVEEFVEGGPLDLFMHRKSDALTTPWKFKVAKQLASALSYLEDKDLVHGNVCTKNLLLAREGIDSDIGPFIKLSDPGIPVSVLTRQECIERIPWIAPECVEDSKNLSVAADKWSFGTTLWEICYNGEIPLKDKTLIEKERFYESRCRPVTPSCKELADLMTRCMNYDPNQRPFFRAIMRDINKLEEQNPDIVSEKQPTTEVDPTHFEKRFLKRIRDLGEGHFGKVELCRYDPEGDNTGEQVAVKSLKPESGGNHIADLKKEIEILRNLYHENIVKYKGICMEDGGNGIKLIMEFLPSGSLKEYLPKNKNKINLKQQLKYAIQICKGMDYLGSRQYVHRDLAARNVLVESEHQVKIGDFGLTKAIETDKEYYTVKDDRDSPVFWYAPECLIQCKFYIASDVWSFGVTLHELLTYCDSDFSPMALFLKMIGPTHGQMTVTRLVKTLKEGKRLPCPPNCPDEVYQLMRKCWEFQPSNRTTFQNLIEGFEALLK

Biological target: T1, Receptor-interacting serine/threonine-protein kinase 1 (mouse (endogenous in MLE-12)) (UniProt Q60855)
T1 sequence: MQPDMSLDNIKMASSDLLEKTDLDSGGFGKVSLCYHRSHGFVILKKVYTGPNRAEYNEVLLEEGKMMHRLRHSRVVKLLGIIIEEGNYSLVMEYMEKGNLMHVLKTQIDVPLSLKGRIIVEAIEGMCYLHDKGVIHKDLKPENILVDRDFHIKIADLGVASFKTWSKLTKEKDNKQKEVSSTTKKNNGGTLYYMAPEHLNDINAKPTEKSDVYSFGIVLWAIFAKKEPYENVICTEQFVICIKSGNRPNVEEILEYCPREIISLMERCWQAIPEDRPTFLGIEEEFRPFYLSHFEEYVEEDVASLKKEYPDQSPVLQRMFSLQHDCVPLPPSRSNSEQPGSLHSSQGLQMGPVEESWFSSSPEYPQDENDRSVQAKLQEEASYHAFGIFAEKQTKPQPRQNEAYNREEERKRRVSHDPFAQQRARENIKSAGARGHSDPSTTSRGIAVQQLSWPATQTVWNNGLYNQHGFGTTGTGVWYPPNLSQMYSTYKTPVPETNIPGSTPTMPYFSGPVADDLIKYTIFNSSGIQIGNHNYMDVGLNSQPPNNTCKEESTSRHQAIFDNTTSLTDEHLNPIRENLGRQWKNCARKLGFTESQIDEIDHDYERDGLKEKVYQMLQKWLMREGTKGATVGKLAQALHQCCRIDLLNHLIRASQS
Test: co-IP; endogenous proteins in MLE-12 lysate (cells stimulated with 1 ug/mL LPS for 24 h; also with or without siRipk1 and LPS); 2000 ug total protein incubated overnight at 4 °C with anti-RIPK1 or anti-JAK1 or normal rabbit IgG, Protein A/G magnetic beads, five washes with IP lysis buffer, Western blot

Molecule: JAK2 (from UniProt Q62120 1-1132)
- binding: no binding

Molecule: TYK2 (from UniProt Q9R117 1-1184)
- binding: no binding

Second part, the molecule after the results:

- binding: binds
Molecule: JAK1 (from UniProt P52332 1-1153)

- binding: no binding
B1: JAK3 (protein, UniProt Q62137 1-1100)
chain: MAPPSEETPLIPQRSCSLSSSEAGALHVLLPPRGPGPPQRLSFSFGDYLAEDLCVRAAKACGILPVYHSLFALATEDFSCWFPPSHIFCIEDVDTQVLVYRLRFYFPDWFGLETCHRFGLRKDLTSAILDLHVLEHLFAQHRSDLVSGRLPVGLSMKEQGEFLSLAVLDLAQMAREQAQRPGELLKTVSYKACLPPSLRDVIQGQNFVTRRRIRRTVVLALRRVVACQADRYALMAKYILDLERLHPAATTETFRVGLPGAQEEPGLLRVAGDNGISWSSGDQELFQTFCDFPEIVDVSIKQAPRVGPAGEHRLVTVTRMDGHILEAEFPGLPEALSFVALVDGYFRLICDSRHYFCKEVAPPRLLEEEAELCHGPITLDFAIHKLKAAGSLPGTYILRRSPQDYDSFLLTACVQTPLGPDYKGCLIRQDPSGAFSLVGLSQPHRSLRELLAACWNSGLRVDGAALNLTSCCAPRPKEKSNLIVVRRGCTPAPAPGCSPSCCALTQLSFHTIPTDSLEWHENLGHGSFTKIFRGRRREVVDGETHDSEVLLKVMDSRHRNCMESFLEAASLMSQVSYPHLVLLHGVCMAGDSIMVQEFVYLGAIDMYLRKRGHLVSASWKLQVTKQLAYALNYLEDKGLPHGNVSARKVLLAREGGDGNPPFIKLSDPGVSPTVLSLEMLTDRIPWVAPECLQEAQTLCLEADKWGFGATTWEVFSGGPAHITSLEPAKKLKFYEDQGQLPALKWTELAGLITQCMAYDPGRRPSFRAILRDLNGLITSDYELLSDPTPGIPSPRDELCGGAQLYACQDPAIFEERHLKYISLLGKGNFGSVELCRYDPLGDNTGPLVAVKQLQHSGPDQQRDFQREIQILKALHSDFIVKYRGVSYGPGRQSLRLVMEYLPSGCLRDFLQRHRARLHTDRLLLFAWQICKGMEYLGARRCVHRDLAARNILVESEAHVKIADFGLAKLLPLGKDYYVVREPGQSPIFWYAPESLSDNIFSRQSDVWSFGVVLYELFTYCDKSCSPSAEFLRMMGPEREGPPLCRLLELLAEGRRLPPPPTCPTEVQELMQLCWAPSPHDRPAFGTLSPQLDALWRGRPG
